Consider 67 compounds from the supplement of paper PMC8104966.

The other results are listed elsewhere or left out. This data set is noisy: repeats of one test often differ as much as different tests do.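 U2OS cells carrying ACE2 were mixed with U2OS cells carrying full-length spike, and fusion was scored by imaging as the share of nuclei showing both cell types' fluorescent markers. A compound counts as an inhibitory hit when it is non-toxic and its fusion z-score falls below -3, meaning more than three standard deviations below the plate's DMSO wells.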

For this test, the system named is U2OS ACE2 x SARS-CoV-2 spike co-culture. Put plainly: cell-cell fusion (fraction fused) z-score vs plate DMSO control; higher = more fusion. Particulars: 30 µM; 5 h; toxicity class: non-toxic, passed QC.
On to `CC(C)CCCC(C)NC(C)C.Cl` (configuration not stated), for which the “cell-cell fusion (z-score)” value was inactive: 3.3.

Take `CC(=O)O[C@@]12CO[C@@H]1C[C@H](O)[C@@]1(C)C(=O)[C@H](O)C3=C(C)[C@@H](OC(=O)[C@H](O)[C@@H](NC(=O)OC(C)(C)C)c4ccccc4)C[C@@](O)([C@@H](OC(=O)c4ccccc4)[C@H]21)C3(C)C.O.O.O` [Docetaxel trihydrate]: the “cell-cell fusion (z-score)” value was inactive: 1.4. For the compound `O=C(CCCN1CCC(O)(c2ccc(Cl)cc2)CC1)c1ccc(F)cc1`, the “cell-cell fusion (z-score)” value was inactive: 2.01. To `O=C(CCCN1CCC(O)(c2ccc(Cl)cc2)CC1)c1ccc(F)cc1` [Haloperidol] belongs inactive: 2.12; to `COc1cc2c(cc1O)CC[C@@H]1[C@@H]2CC[C@]2(C)[C@@H](O)CC[C@@H]12` [2-methoxyestradiol], inactive: 3.7. As for `CS(=O)(=O)O.Oc1ccc(C2CNCCc3c2cc(O)c(O)c3Cl)cc1` (configuration not stated), the figure is inactive: -1.98; as for `CS(=O)(=O)O.Oc1ccc(C2CNCCc3c2cc(O)c(O)c3Cl)cc1` (configuration not stated) [Fenoldopam mesylate], inactive: -2.19; as for `CC(C(=O)O)c1ccc(-c2ccccc2)c(F)c1` (configuration not stated), inactive: 0.729. As for `CNc1ccc(C(=O)CC(O)CCC(C)C2OC(=O)CC(O)CC(=O)CC(O)CC(O)CC(O)CC(O)CC3(O)CC(O)C(C(=O)OC)C(CC(O[C@@H]4O[C@H](C)[C@@H](O)[C@H](N)[C@@H]4O)/C=C/C=C/C=C/C=C/C=C/C=C/C=C/C2C)O3)cc1` (some centres not stated), the “cell-cell fusion (z-score)” value is inactive: 1.65. For the compound `N[C@@H](Cc1c[nH]c2ccccc12)C(=O)O`, the “cell-cell fusion (z-score)” value was inactive: 0.576. Consider `N[C@@H](Cc1c[nH]c2ccccc12)C(=O)O` [L-Tryptophan], for which the “cell-cell fusion (z-score)” value was inactive: -2.94. On to `COCCNC(=O)COc1ccc(OCCNC[C@H](O)COc2ccccc2)cc1.Cl` [ZD 7114 hydrochloride], for which the “cell-cell fusion (z-score)” value is inactive: 2.08.

With `COc1cc2c(cc1OC)C(=O)C(CC1CCN(Cc3ccccc3)CC1)C2.Cl` (configuration not stated), the “cell-cell fusion (z-score)” value is inactive: 1.07. Regarding `CC(=O)[C@H]1CCC2C3C=CC4=CC(=O)CC[C@@]4(C)C3CC[C@@]21C` (some centres not stated), the “cell-cell fusion (z-score)” value was inactive: 3.37. For `CC(=O)O[C@H]1CC2CCC3C(CC[C@@]4(C)C3C[C@H]([N+]3(C)CCCCC3)[C@@H]4OC(C)=O)[C@@]2(C)C[C@@H]1[N+]1(C)CCCCC1.[Br-].[Br-]` (some centres not stated), the “cell-cell fusion (z-score)” value is inactive: 2.36. Regarding `O=C(O)[C@]1(O)C[C@@H](O)[C@@H](O)[C@H](O)C1`, the “cell-cell fusion (z-score)” value was inactive: 2.2. Regarding `Cc1ccccc1OCC(O)CO` (configuration not stated), the “cell-cell fusion (z-score)” value is inactive: 2.82. Turning to `S=C=NCc1ccccc1`, the “cell-cell fusion (z-score)” value is inactive: 3.05. In the case of `CC(=O)OCC(=O)[C@@]1(O)CCC2C3CCC4=CC(=O)C=CC4(C)C3[C@@H](O)C[C@@]21C` (some centres not stated), the “cell-cell fusion (z-score)” value is inactive: -0.411. Turning to `COc1cc2c(cc1C=O)OCO2`, the “cell-cell fusion (z-score)” value is inactive: 1.25.

Take `COc1cc2c(cc1OC)[C@H]1C[C@@H](OC(=O)[C@@H](N)C(C)C)[C@H](CC(C)C)CN1CC2` [Valbenazine]: the “cell-cell fusion (z-score)” value was inactive: 1.87. In the case of `Cc1ncc(C[n+]2csc(CCO)c2C)c(O)n1.Cl.[Cl-]`, the “cell-cell fusion (z-score)” value is inactive: 2.62. For `Cl.O=C(O)C1=CCCN(CCON=C(c2ccccc2)c2ccccc2)C1` [NO-711 hydrochloride], the “cell-cell fusion (z-score)” value is inactive: 1.59.

Turning to `Cc1cc(CC(=O)O)n(C)c1C(=O)c1ccc(Cl)cc1`, the “cell-cell fusion (z-score)” value is inactive: 3.05. As for `CC1(C)CC23C(=O)CCC(O)C2(C)CCC13` (configuration not stated), the “cell-cell fusion (z-score)” value is inactive: 1.94. Take `Cl.Cl.OCCN1CCN(CCCN2c3ccccc3C=Cc3ccccc32)CC1` [Opipramol dihydrochloride]: the “cell-cell fusion (z-score)” value is inactive: 0.971.

For the compound `CC(C)NC[C@H](O)COc1cccc2ccccc12.Cl`, the “cell-cell fusion (z-score)” value is inactive: 1.9. As for `Cl.Oc1ccc2c3c1O[C@H]1c4[nH]c5ccccc5c4C[C@@]4(O)C(C2)N(CC2CC2)CCC314` (some centres not stated) [Naltrindole hydrochloride], the figure is inactive: 1.38.

`CC(C)(C)NC[C@H](O)COc1nsnc1N1CCOCC1.O=C(O)/C=C\C(=O)O` [Timolol Maleate]: the “cell-cell fusion (z-score)” value was inactive: 2.44. In the case of `NC[C@@H]1O[C@H](O[C@@H]2[C@@H](CO)OC(O[C@@H]3[C@@H](O)[C@H](N)C[C@H](N)[C@H]3O[C@H]3O[C@H](CO)[C@@H](O)[C@H](O)[C@H]3N)[C@@H]2O)[C@H](N)[C@@H](O)[C@@H]1O.O=S(=O)(O)O` (some centres not stated), the “cell-cell fusion (z-score)” value is inactive: 2.5. In the case of `O=S1(=O)OC(c2ccc(O)cc2)(c2ccc(O)cc2)c2ccccc21`, the “cell-cell fusion (z-score)” value is inactive: 3.32. As for `CCCCC1(COC(=O)CCC(=O)O)C(=O)N(c2ccccc2)N(c2ccccc2)C1=O`, the figure is inactive: 1.75; as for `CCC(=O)c1c(O)cc(O)cc1O`, inactive: -0.81.

In the case of `CS(=O)(=O)O.N#CC1(c2ccc(NC(=O)c3cccnc3NCc3ccncc3)cc2)CCCC1` [Apatinib mesylate], the “cell-cell fusion (z-score)” value was inactive: 1.18.

Consider `C=C1c2cccc(O)c2C(=O)C2=C(O)[C@]3(O)C(=O)C(C(N)=O)=C(O)[C@@H](N(C)C)[C@@H]3[C@@H](O)[C@H]12.Cl`, for which the “cell-cell fusion (z-score)” value was inactive: 0.959. Consider `CCCCOc1ccc(C(=O)CCN2CCCCC2)cc1.Cl` [Dyclonine hydrochloride], for which the “cell-cell fusion (z-score)” value was inactive: 1.6. `C[C@@H]1CC[C@H]2[C@@H](C)C(O)O[C@@H]3O[C@]4(C)CC[C@@H]1[C@]32OO4` (some centres not stated): the “cell-cell fusion (z-score)” value is inactive: -0.956. As for `OCc1ccccc1`, the “cell-cell fusion (z-score)” value is inactive: 2.85.

As for `OCc1ccccc1` [Benzyl alcohol], the “cell-cell fusion (z-score)” value is inactive: 4.31. `CC[C@@]1(O)C(=O)OCc2c1cc1n(c2=O)Cc2cc3c(CN(C)C)c(O)ccc3nc2-1.Cl.O` [Topotecan hydrochloride hydrate]: the “cell-cell fusion (z-score)” value is inactive: 4.31.

For `CCCCC(F)(F)[C@@]1(O)CC[C@H]2[C@@H](CC(=O)[C@@H]2CCCCCCC(=O)O)O1` [Lubiprostone], the “cell-cell fusion (z-score)” value is inactive: 2.2. As to `CC[C@H](CO)Nc1nc(NCc2ccccc2)c2ncn(C(C)C)c2n1` [Roscovitine (Seliciclib,CYC202)], the “cell-cell fusion (z-score)” value is inactive: -1.25.

As for `CC[C@H](CO)Nc1nc(NCc2ccccc2)c2ncn(C(C)C)c2n1` [Roscovitine (Seliciclib, CYC202)], the “cell-cell fusion (z-score)” value was inactive: 2.06. On to `O=C(NOCC(O)CO)c1cc(Br)c(F)c(F)c1Nc1ccc(I)cc1F` (configuration not stated), for which the “cell-cell fusion (z-score)” value is inactive: -0.112. As to `CC(=O)O[C@H]1CC[C@@]2(C)C(=CC[C@@H]3[C@@H]2CC[C@]2(C)C(c4cccnc4)=CC[C@@H]32)C1` [Abiraterone Acetate], the “cell-cell fusion (z-score)” value was inactive: 3.11. As for `Cl.Clc1cc(I)cc(Cl)c1N=C1NCCN1` [p-Iodoclonidine hydrochloride], the “cell-cell fusion (z-score)” value is inactive: 2.52. As to `C[N+](C)(C)CC(=O)O.[Cl-]` [Betaine hydrochloride], the “cell-cell fusion (z-score)” value is inactive: 2.06. Consider `COc1cc(OC)cc(-c2cc3cnc(N)nc3nc2NC(=O)NC(C)(C)C)c1`, for which the “cell-cell fusion (z-score)” value was inactive: 1.19. In the case of `Cc1cccc(C#Cc2ccccc2)n1.Cl` [6-Methyl-2-(phenylethynyl)pyridine hydrochloride], the “cell-cell fusion (z-score)” value was inactive: 1.73.

As to `Oc1ccc(O)cc1` [Hydroquinone], the “cell-cell fusion (z-score)” value is inactive: 1.34. Regarding `CC(=O)O.CC(C)C[C@H](NC(=O)[C@@H](COC(C)(C)C)NC(=O)[C@H](Cc1ccc(O)cc1)NC(=O)[C@H](CO)NC(=O)[C@H](Cc1c[nH]c2ccccc12)NC(=O)[C@H](Cc1c[nH]cn1)NC(=O)[C@@H]1CCC(=O)N1)C(=O)N[C@@H](CCCNC(=N)N)C(=O)N1CCC[C@H]1C(=O)NNC(N)=O` [Goserelin acetate], the “cell-cell fusion (z-score)” value was inactive: 2.74. For `CC(CCC(=O)O)[C@H]1CCC2C3CC[C@@H]4C[C@H](O)CC[C@]4(C)C3CC[C@@]21C` (some centres not stated), the “cell-cell fusion (z-score)” value is inactive: 2.9. On to `CCN(CC)C(=O)c1cccnc1`, for which the “cell-cell fusion (z-score)” value was inactive: 1.13. Regarding `O=C1OC(=O)C2C3CCC(O3)C12` (configuration not stated) [Norcantharidin], the “cell-cell fusion (z-score)” value is inactive: 2.35. As to `O=C1OC(=O)C2C3CCC(O3)C12` (configuration not stated), the “cell-cell fusion (z-score)” value is inactive: 4.06. Regarding `CC[C@@H]1C(=O)N(C)c2cnc(Nc3ccc(C(=O)N[C@H]4CC[C@H](N5CCN(CC6CC6)CC5)CC4)cc3OC)nc2N1C(C)C` [BI6727 (Volasertib)], the “cell-cell fusion (z-score)” value is inactive: 1.65. On to `Cc1cc(C2CCCCC2)n(O)c(=O)c1.NCCO` [Ciclopirox ethanolamine], for which the “cell-cell fusion (z-score)” value is inactive: 1.96. With `N[C@H](C(=O)O)[C@H](O)C(=O)O` (racemic) [DL-threo-beta-hydroxyaspartic acid], the “cell-cell fusion (z-score)” value is inactive: 2.33. In the case of `CC(=O)N[C@@H](Cc1ccc(O)cc1)C(=O)O` [N-Acetyl-L-tyrosine], the “cell-cell fusion (z-score)” value was inactive: 2.76. Consider `CCC1OC(=O)[C@H](C)C(=O)[C@H](C)[C@@H](OC2O[C@H](C)C[C@H](N(C)C)[C@H]2O)[C@](C)(OC)C[C@@H](C)C(=O)[C@@H](C)[C@@H]2N(CCCCn3cnc(-c4cccnc4)c3)C(=O)O[C@]12C` (some centres not stated), for which the “cell-cell fusion (z-score)” value is inactive: 2.89.

Take `N=C(N)N1CCc2ccccc2C1.O=S(=O)(O)O`: the “cell-cell fusion (z-score)” value was inactive: 3.47. As to `COc1c2c(cc3c1OCO3)CC[N+](C)=C2.[Cl-]`, the “cell-cell fusion (z-score)” value is inactive: 1.53. For the compound `Cn1c(=O)c2c(ncn2CC2OCCO2)n(C)c1=O`, the “cell-cell fusion (z-score)” value was inactive: 1.54.

On to `COc1cc2c(cc1OC)C1Cc3ccc(OC)c(OC)c3CN1CC2` (configuration not stated), for which the “cell-cell fusion (z-score)” value was inactive: 2.51. As to `CC(=O)O[C@H]1C[C@@H]2CC[C@@H]3[C@H](CC[C@@]4(C)[C@H]3C[C@H]([N+]3(C)CCCCC3)[C@@H]4OC(C)=O)[C@@]2(C)C[C@@H]1[N+]1(C)CCCCC1.[Br-].[Br-]` [Pancuronium bromide], the “cell-cell fusion (z-score)” value is inactive: 2.09. For `NCCCP(=O)(O)O` [3-Aminopropylphosphonic acid], the “cell-cell fusion (z-score)” value is inactive: 1.81. For the compound `S=C([S-])N1CCCC1.[NH4+]` [Ammonium pyrrolidinedithiocarbamate], the “cell-cell fusion (z-score)” value was active: -4.88.
